# Taken from: PubChem BioAssay AID1508597 (Cure First, 2020)
# Screen: 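Genes whose silencing sensitises or protects ovarian cancer cells against rucaparib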 (primary screen)
# System: human ovarian carcinoma lines grown from tumours: OCI-P5x (papillary serous) and OCI-C5x (clear cell)
# Reagents: siRNA pool against human genes, 1.25 pmol siRNA per well
# Duration: 72 h or 96 h, depending on the cell culture
# Challenge: rucaparib 20 µM (about IC30) or vehicle, present until read-out
# Detection: 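Luminescent ATP-based viability assay read 72 or 96 h after transfection, depending on culture, given as normalised percent viability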
# Scale: viability, normalised: higher = more viable cells remaining
# Active means: 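a well counts as a hit if its normalised viability is under 80 percent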
# Calls: active = viability under 80%; inactive = viability 80% or more
# In all, the deposit lists about 2,100 reagents; shown is an unselected part. 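Calls flag viability under 80% in either arm, not effects specific to rucaparib; the reference for percent is not stated.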 Reagent sequences are not shown. The record does not give: the 100% reference.
gene,rucaparib or vehicle,cell line,technical replicate,"viability, normalised (%)",activity call
DDX11,Rucaparib,OCI-C5x (clear cell),1,42.1,active
DDX11,Rucaparib,OCI-C5x (clear cell),2,30.9,active
DDX11,Rucaparib,OCI-C5x (clear cell),3,33,active
DDX11,Rucaparib,OCI-P5x (serous),1,52.1,active
DDX11,Rucaparib,OCI-P5x (serous),2,46.1,active
DDX11,Rucaparib,OCI-P5x (serous),3,29.5,active
DDX11,Vehicle,OCI-C5x (clear cell),1,26.2,active
DDX11,Vehicle,OCI-C5x (clear cell),2,37.1,active
DDX11,Vehicle,OCI-C5x (clear cell),3,19.3,active
DDX11,Vehicle,OCI-P5x (serous),1,39.6,active
DDX11,Vehicle,OCI-P5x (serous),2,61,active
DDX11,Vehicle,OCI-P5x (serous),3,54,active
SMG1,Rucaparib,OCI-C5x (clear cell),1,58.1,active
SMG1,Rucaparib,OCI-C5x (clear cell),2,66.6,active
SMG1,Rucaparib,OCI-C5x (clear cell),3,52.2,active
SMG1,Rucaparib,OCI-P5x (serous),1,98.4,inactive
SMG1,Rucaparib,OCI-P5x (serous),2,98.4,inactive
SMG1,Rucaparib,OCI-P5x (serous),3,105,inactive
SMG1,Vehicle,OCI-C5x (clear cell),1,52.8,active
SMG1,Vehicle,OCI-C5x (clear cell),2,51.9,active
SMG1,Vehicle,OCI-C5x (clear cell),3,50.9,active
SMG1,Vehicle,OCI-P5x (serous),1,80.7,inactive
SMG1,Vehicle,OCI-P5x (serous),2,83.1,inactive
SMG1,Vehicle,OCI-P5x (serous),3,72.9,active
TDRD10,Rucaparib,OCI-C5x (clear cell),1,68.2,active
TDRD10,Rucaparib,OCI-C5x (clear cell),2,66.5,active
TDRD10,Rucaparib,OCI-C5x (clear cell),3,52.3,active
TDRD10,Rucaparib,OCI-P5x (serous),1,60.7,active
TDRD10,Rucaparib,OCI-P5x (serous),2,77,active
TDRD10,Rucaparib,OCI-P5x (serous),3,59.1,active
TDRD10,Vehicle,OCI-C5x (clear cell),1,62.2,active
TDRD10,Vehicle,OCI-C5x (clear cell),2,65.4,active
TDRD10,Vehicle,OCI-C5x (clear cell),3,47.3,active
TDRD10,Vehicle,OCI-P5x (serous),1,70.4,active
TDRD10,Vehicle,OCI-P5x (serous),2,78.7,active
TDRD10,Vehicle,OCI-P5x (serous),3,85.5,inactive

An excerpt of the results above:
gene,rucaparib or vehicle,cell line,technical replicate,"viability, normalised (%)",activity call
SMG1,Rucaparib,OCI-C5x (clear cell),2,66.6,active
SMG1,Rucaparib,OCI-C5x (clear cell),3,52.2,active
SMG1,Rucaparib,OCI-P5x (serous),1,98.4,inactive
SMG1,Rucaparib,OCI-P5x (serous),2,98.4,inactive
SMG1,Rucaparib,OCI-P5x (serous),3,105,inactive
SMG1,Vehicle,OCI-C5x (clear cell),1,52.8,active
SMG1,Vehicle,OCI-C5x (clear cell),2,51.9,active
SMG1,Vehicle,OCI-C5x (clear cell),3,50.9,active
SMG1,Vehicle,OCI-P5x (serous),1,80.7,inactive
SMG1,Vehicle,OCI-P5x (serous),2,83.1,inactive
SMG1,Vehicle,OCI-P5x (serous),3,72.9,active
TDRD10,Rucaparib,OCI-C5x (clear cell),1,68.2,active
TDRD10,Rucaparib,OCI-C5x (clear cell),2,66.5,active

More entries follow:
gene,rucaparib or vehicle,cell line,technical replicate,"viability, normalised (%)",activity call
PRPS1L1,Rucaparib,OCI-C5x (clear cell),1,44.3,active
PRPS1L1,Rucaparib,OCI-C5x (clear cell),2,51.4,active
PRPS1L1,Rucaparib,OCI-C5x (clear cell),3,50.3,active
PRPS1L1,Rucaparib,OCI-P5x (serous),1,88.8,inactive
PRPS1L1,Rucaparib,OCI-P5x (serous),2,78,active
PRPS1L1,Rucaparib,OCI-P5x (serous),3,76.1,active
PRPS1L1,Vehicle,OCI-C5x (clear cell),1,71.4,active
PRPS1L1,Vehicle,OCI-C5x (clear cell),2,55.5,active
PRPS1L1,Vehicle,OCI-C5x (clear cell),3,53.9,active
PRPS1L1,Vehicle,OCI-P5x (serous),1,75.6,active
PRPS1L1,Vehicle,OCI-P5x (serous),2,86.7,inactive
PRPS1L1,Vehicle,OCI-P5x (serous),3,79.4,active
BNIP3,Rucaparib,OCI-C5x (clear cell),1,65.9,active
BNIP3,Rucaparib,OCI-C5x (clear cell),2,53.3,active
BNIP3,Rucaparib,OCI-C5x (clear cell),3,42.9,active
BNIP3,Rucaparib,OCI-P5x (serous),1,46.3,active
BNIP3,Rucaparib,OCI-P5x (serous),2,49.1,active
BNIP3,Rucaparib,OCI-P5x (serous),3,57.4,active
BNIP3,Vehicle,OCI-C5x (clear cell),1,36.9,active
BNIP3,Vehicle,OCI-C5x (clear cell),2,30.4,active
BNIP3,Vehicle,OCI-C5x (clear cell),3,33.9,active
BNIP3,Vehicle,OCI-P5x (serous),1,35.4,active
BNIP3,Vehicle,OCI-P5x (serous),2,50.1,active
BNIP3,Vehicle,OCI-P5x (serous),3,42,active
CLDN20,Rucaparib,OCI-C5x (clear cell),1,64.4,active
CLDN20,Rucaparib,OCI-C5x (clear cell),2,62.7,active
CLDN20,Rucaparib,OCI-C5x (clear cell),3,51.5,active
CLDN20,Rucaparib,OCI-P5x (serous),1,56.9,active
CLDN20,Rucaparib,OCI-P5x (serous),2,69.8,active
CLDN20,Rucaparib,OCI-P5x (serous),3,81.2,inactive
CLDN20,Vehicle,OCI-C5x (clear cell),1,43.6,active
CLDN20,Vehicle,OCI-C5x (clear cell),2,55.6,active
CLDN20,Vehicle,OCI-C5x (clear cell),3,51.4,active
CLDN20,Vehicle,OCI-P5x (serous),1,77.9,active
CLDN20,Vehicle,OCI-P5x (serous),2,60.8,active
CLDN20,Vehicle,OCI-P5x (serous),3,72,active
CSRNP2,Rucaparib,OCI-C5x (clear cell),1,75.7,active
CSRNP2,Rucaparib,OCI-C5x (clear cell),2,78,active
CSRNP2,Rucaparib,OCI-C5x (clear cell),3,64.7,active
CSRNP2,Rucaparib,OCI-P5x (serous),1,63.1,active
CSRNP2,Rucaparib,OCI-P5x (serous),2,86.9,inactive
CSRNP2,Rucaparib,OCI-P5x (serous),3,88.9,inactive
CSRNP2,Vehicle,OCI-C5x (clear cell),1,64.6,active
CSRNP2,Vehicle,OCI-C5x (clear cell),2,64.6,active
CSRNP2,Vehicle,OCI-C5x (clear cell),3,49,active
CSRNP2,Vehicle,OCI-P5x (serous),1,75.5,active
CSRNP2,Vehicle,OCI-P5x (serous),2,77.7,active
CSRNP2,Vehicle,OCI-P5x (serous),3,71.2,active
